Consider one molecule from paper doi:10.1101/2023.03.27.534346.

The target of this assay is T1, 53BP1-V5 fusion protein (endogenous TP53BP1 locus with a biallelic C-terminal V5-epitope tag) (human (endogenous in hTERT-RPE1)), Q12888.
T1 chain: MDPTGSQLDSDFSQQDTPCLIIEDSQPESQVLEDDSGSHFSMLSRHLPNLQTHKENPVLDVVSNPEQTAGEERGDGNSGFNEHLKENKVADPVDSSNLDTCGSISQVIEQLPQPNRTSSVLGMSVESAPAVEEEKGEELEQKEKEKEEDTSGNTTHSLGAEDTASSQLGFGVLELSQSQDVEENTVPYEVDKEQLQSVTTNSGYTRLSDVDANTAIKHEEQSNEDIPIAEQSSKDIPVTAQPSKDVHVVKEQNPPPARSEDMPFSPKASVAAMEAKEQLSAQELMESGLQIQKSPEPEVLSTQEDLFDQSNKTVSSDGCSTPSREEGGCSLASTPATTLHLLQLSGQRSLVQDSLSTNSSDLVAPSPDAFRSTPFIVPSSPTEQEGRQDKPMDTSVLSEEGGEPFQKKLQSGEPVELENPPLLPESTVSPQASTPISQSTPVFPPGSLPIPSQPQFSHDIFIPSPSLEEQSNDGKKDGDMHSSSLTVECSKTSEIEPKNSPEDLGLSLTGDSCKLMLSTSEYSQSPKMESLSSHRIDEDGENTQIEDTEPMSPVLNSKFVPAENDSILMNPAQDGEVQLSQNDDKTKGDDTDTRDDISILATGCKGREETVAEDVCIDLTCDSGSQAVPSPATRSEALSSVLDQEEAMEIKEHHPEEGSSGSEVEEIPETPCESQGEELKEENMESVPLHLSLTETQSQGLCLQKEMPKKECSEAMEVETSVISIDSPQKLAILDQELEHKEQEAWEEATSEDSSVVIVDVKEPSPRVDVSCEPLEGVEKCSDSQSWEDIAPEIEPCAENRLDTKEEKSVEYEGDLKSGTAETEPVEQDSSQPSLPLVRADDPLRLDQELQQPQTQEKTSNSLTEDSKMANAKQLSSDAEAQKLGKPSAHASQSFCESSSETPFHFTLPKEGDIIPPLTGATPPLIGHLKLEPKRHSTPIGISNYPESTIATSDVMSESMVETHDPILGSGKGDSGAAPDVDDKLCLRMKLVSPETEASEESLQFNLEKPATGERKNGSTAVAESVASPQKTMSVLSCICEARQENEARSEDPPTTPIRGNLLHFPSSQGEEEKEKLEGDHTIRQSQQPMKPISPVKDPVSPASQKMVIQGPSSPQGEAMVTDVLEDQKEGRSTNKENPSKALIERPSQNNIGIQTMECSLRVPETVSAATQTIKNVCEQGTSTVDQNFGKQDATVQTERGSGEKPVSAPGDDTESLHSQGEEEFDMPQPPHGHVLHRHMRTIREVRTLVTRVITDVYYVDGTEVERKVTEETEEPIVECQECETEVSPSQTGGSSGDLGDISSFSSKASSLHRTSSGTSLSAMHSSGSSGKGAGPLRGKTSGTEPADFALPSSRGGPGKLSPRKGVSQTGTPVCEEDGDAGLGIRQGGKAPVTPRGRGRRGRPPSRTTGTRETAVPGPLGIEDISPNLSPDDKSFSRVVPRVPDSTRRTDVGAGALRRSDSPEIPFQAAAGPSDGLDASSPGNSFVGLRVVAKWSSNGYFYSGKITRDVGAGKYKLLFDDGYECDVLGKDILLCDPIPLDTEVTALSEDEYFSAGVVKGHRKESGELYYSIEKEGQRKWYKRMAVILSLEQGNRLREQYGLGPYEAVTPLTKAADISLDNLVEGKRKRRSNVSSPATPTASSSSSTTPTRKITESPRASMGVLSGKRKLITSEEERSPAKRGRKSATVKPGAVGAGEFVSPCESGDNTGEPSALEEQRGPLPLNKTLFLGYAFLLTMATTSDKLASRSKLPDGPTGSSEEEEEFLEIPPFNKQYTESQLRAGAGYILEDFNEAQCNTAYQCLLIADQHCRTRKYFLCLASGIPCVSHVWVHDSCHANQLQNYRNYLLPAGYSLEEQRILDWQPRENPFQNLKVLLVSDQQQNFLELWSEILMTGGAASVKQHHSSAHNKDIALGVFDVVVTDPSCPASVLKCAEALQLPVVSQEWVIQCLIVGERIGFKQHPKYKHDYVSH
Nature of the assay: affinity purification with mass spectrometry. The note with it: remark: other sources report otherwise.

No constants are given. Whether binding was seen depends on the method and setting. Binding seen in cells or lysates may run through a third protein. These calls come from enrichment with a bait or labelling near it, and not all partners need be listed. Tags and fused reporters may be left off the sequences shown.

B1: USP28 (ubiquitin-specific protease), Q96RU2 1-1077 (enzyme)
chain: MTAELQQDDAAGAADGHGSSCQMLLNQLREITGIQDPSFLHEALKASNGDITQAVSLLTDERVKEPSQDTVATEPSEVEGSAANKEVLAKVIDLTHDNKDDLQAAIALSLLESPKIQADGRDLNRMHEATSAETKRSKRKRCEVWGENPNPNDWRRVDGWPVGLKNVGNTCWFSAVIQSLFQLPEFRRLVLSYSLPQNVLENCRSHTEKRNIMFMQELQYLFALMMGSNRKFVDPSAALDLLKGAFRSSEEQQQDVSEFTHKLLDWLEDAFQLAVNVNSPRNKSENPMVQLFYGTFLTEGVREGKPFCNNETFGQYPLQVNGYRNLDECLEGAMVEGDVELLPSDHSVKYGQERWFTKLPPVLTFELSRFEFNQSLGQPEKIHNKLEFPQIIYMDRYMYRSKELIRNKRECIRKLKEEIKILQQKLERYVKYGSGPARFPLPDMLKYVIEFASTKPASESCPPESDTHMTLPLSSVHCSVSDQTSKESTSTESSSQDVESTFSSPEDSLPKSKPLTSSRSSMEMPSQPAPRTVTDEEINFVKTCLQRWRSEIEQDIQDLKTCIASTTQTIEQMYCDPLLRQVPYRLHAVLVHEGQANAGHYWAYIYNQPRQSWLKYNDISVTESSWEEVERDSYGGLRNVSAYCLMYINDKLPYFNAEAAPTESDQMSEVEALSVELKHYIQEDNWRFEQEVEEWEEEQSCKIPQMESSTNSSSQDYSTSQEPSVASSHGVRCLSSEHAVIVKEQTAQAIANTARAYEKSGVEAALSEVMLSPAMQGVILAIAKARQTFDRDGSEAGLIKAFHEEYSRLYQLAKETPTSHSDPRLQHVLVYFFQNEAPKRVVERTLLEQFADKNLSYDERSISIMKVAQAKLKEIGPDDMNMEEYKKWHEDYSLFRKVSVYLLTGLELYQKGKYQEALSYLVYAYQSNAALLMKGPRRGVKESVIALYRRKCLLELNAKAASLFETNDDHSVTEGINVMNELIIPCIHLIINNDISKDDLDAIEVMRNHWCSYLGQDIAENLQLCLGEFLPRLLDPSAEIIVLKEPPTIRPNSPYDLCSRFAAVMESIQGVSTVTVK
Consider B1, for which the binding entry is listed as “binds”.
